Test results: PubChem BioAssay (NCATS)
This list was built around the results that the source calls inconclusive (neither active nor inactive); the mix of calls is not that of the screen. Entries that show only a call come without a potency. For some assays here: Where the call is inconclusive, the potency comes from a doubtful curve fit. Active and inactive are the calls of the source. Calls come from the whole dose curve; as a rule, active = well fitted curve in the direction sought with a large enough effect; inconclusive = small, poorly fitted or top-dose-only effect, or another doubt; inactive = no such curve, though single readings can be large; an effect the other way counts as inactive or inconclusive.

What was measured:
[1] = Quantitative High-Throughput drug screen in 47 multiple myeloma cell lines against the NCATS MIPE library collection: Karpas25_ECACC cell viability assay (AID 1918968; note: nearly all actives have a fitted effect of over 35% in size)
Outline: (§1)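 Approved and investigational drugs from MIPE 4.0 were added by pin tool to 500 cells per well. After 48 hours at 37C, ATP-based CellTiter-Glo luminescence indicated remaining viability.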

[2] = Quantitative High-Throughput drug screen in 47 multiple myeloma cell lines against the NCATS MIPE library collection: KMS20_JCRB cell viability assay (AID 1918973); conditions: CellTiter-Glo ATP, 48 h; viability (% of DMSO): at 45.8 µM (top of the series); note: nearly all actives have a fitted effect of over 45% in size
Outline: as §1

[3] = Quantitative High-Throughput drug screen in 47 multiple myeloma cell lines against the NCATS MIPE library collection: KMS21BM_JCRB cell viability assay (AID 1918974); note: potency is the fitted concentration of half-maximal effect
Outline: as §1

[4] = Quantitative High-Throughput drug screen in 47 multiple myeloma cell lines against the NCATS MIPE library collection: KMS26_JCRB cell viability assay (AID 1918975); conditions: KMS26 myeloma cells viability, CellTiter-Glo ATP, 48 h; viability (% of DMSO): at 45.8 µM (top of the series); note: nearly all actives have a fitted effect of over 45% in size
Outline: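 Luminescent ATP measurement with CellTiter-Glo gives viability, scaled between DMSO-only wells (100%) and media-only wells (0%). Cells, 500 per well, faced library compounds for 48 hours at 37C.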

[5] = Quantitative High-Throughput drug screen in 47 multiple myeloma cell lines against the NCATS MIPE library collection: MMM1_PLB cell viability assay (AID 1918976); note: potency is the fitted concentration of half-maximal effect; nearly all actives have a fitted effect of over 35% in size
Outline: (§2)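 Plated at 500 cells per well, myeloma lines received MIPE 4.0 compounds by pin tool. Following 48 h culture at 37 °C, CellTiter-Glo luminescence gave viability relative to DMSO and media-only controls.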

[6] = Quantitative High-Throughput drug screen in 47 multiple myeloma cell lines against the NCATS MIPE library collection: MOLP8_DSMZ cell viability assay (AID 1918977); conditions: MOLP8 myeloma viability, CellTiter-Glo ATP luminescence, 48 h; viability (% of control): at 45.8 µM (top of the series); note: potency is the fitted concentration of half-maximal effect; nearly all actives have a fitted effect of over 45% in size
Outline: as §2

[7] = Quantitative High-Throughput drug screen in 47 multiple myeloma cell lines against the NCATS MIPE library collection: OCIMY1_PLB cell viability assay (AID 1918979); note: nearly all actives have a fitted effect of over 35% in size
Outline: as §2

[8] = Quantitative High-Throughput drug screen in 47 multiple myeloma cell lines against the NCATS MIPE library collection: MM1S_ATCC cell viability assay (AID 1918980); note: nearly all actives have a fitted effect of over 45% in size
Outline: as §2

[9] = Quantitative High-Throughput drug screen in 47 multiple myeloma cell lines against the NCATS MIPE library collection: LP1_DSMZ cell viability assay (AID 1918982); note: nearly all actives have a fitted effect of over 35% in size
Outline: as §2

[10] = Quantitative High-Throughput drug screen in 47 multiple myeloma cell lines against the NCATS MIPE library collection: KMS28PE_JCRB cell viability assay (AID 1918983)
Outline: as §2

[11] = Quantitative High-Throughput drug screen in 47 multiple myeloma cell lines against the NCATS MIPE library collection: L363_DSMZ cell viability assay (AID 1918984); conditions: L363 myeloma viability, CellTiter-Glo ATP luminescence, 48 h; viability (% of control): at 45.8 µM (top of the series); note: nearly all actives have a fitted effect of over 40% in size
Outline: as §2

[12] = Quantitative High-Throughput drug screen in 47 multiple myeloma cell lines against the NCATS MIPE library collection: KMS34_JCRB cell viability assay (AID 1918985); note: nearly all actives have a fitted effect of over 40% in size
Outline: as §2

[13] = Quantitative High-Throughput drug screen in 47 multiple myeloma cell lines against the NCATS MIPE library collection: OCIMY5_PLB cell viability assay (AID 1918988); note: nearly all actives have a fitted effect of over 65% in size
Outline: as §2

[14] = Quantitative High-Throughput drug screen in 47 multiple myeloma cell lines against the NCATS MIPE library collection: OPM1_PLB cell viability assay (AID 1918989); note: nearly all actives have a fitted effect of over 40% in size
Outline: as §2

[15] = Quantitative High-Throughput drug screen in 47 multiple myeloma cell lines against the NCATS MIPE library collection: XG1_PLB cell viability assay (AID 1919866); note: nearly all actives have a fitted effect of over 35% in size
Outline: as §2

[16] = Quantitative High-Throughput drug screen in 47 multiple myeloma cell lines against the NCATS MIPE library collection: UTMC2_PLB cell viability assay (AID 1919868); conditions: CellTiter-Glo ATP luminescence, 48 h; series mostly up to 45.8 µM; note: nearly all actives have a fitted effect of over 55% in size
Outline: as §2

[17] = Quantitative High-Throughput drug screen in 47 multiple myeloma cell lines against the NCATS MIPE library collection: KMS28BM_JCRB cell viability assay (AID 1919874); note: nearly all actives have a fitted effect of over 35% in size
Outline: as §2

[18] = system: Es-2; assay: Primary qHTS to identify gynecologic anti-cancer compounds using libraries of approved drugs and bioactive compounds (AID 1345084); conditions: Gynecologic cancer cell panel viability, ATPlite luminescence, 48 h; series mostly up to 57.5 µM; note: nearly all actives have a fitted effect of over 55% in size
Outline: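 Luminescence from the ATPlite ATP-monitoring reagent indicates viable cell number; lower signal means cytotoxicity. Cells received compound 16 h after seeding and were exposed for 48 h across five concentrations.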

[19] = Drug repurposing screens with cells derived from glioblastoma tumor samples (AID 1345199); conditions: GBM patient neurospheres viability, ATP luminescence, 48 h; Potency: tumour line A unless noted; series mostly up to 46 µM; note: nearly all actives have a fitted effect of over 40% in size
Outline: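 Four patient lines of CD133+ GBM neurospheres were screened at several concentrations; hits were retested in those lines plus three slower-growing GBM lines, using 48-hour treatment and ATP-based viability.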

[20] = system: CP247; assay: qHTS profiling for inhibitors of Plasmodium falciparum proliferation (AID 504749); note: nearly all actives have a fitted effect of over 60% in size; note: potency is the fitted concentration of half-maximal effect; conditions: P. falciparum in erythrocytes, SYBR Green DNA, 72 h; series mostly up to 28.7 µM
Outline: (§3)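 Three-day growth assay of blood-stage parasites in erythrocytes (0.3% parasitemia, 2.5% hematocrit) at 37 C, 5% CO2, quantified by SYBR Green DNA staining after overnight detergent lysis.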

[21] = system: CP265; assay: as above; conditions: P. falciparum in erythrocytes, SYBR Green DNA, 72 h; series mostly up to 28.7 µM
Outline: as §3

[22] = system: CP291; assay: as above; conditions: P. falciparum in erythrocytes, SYBR Green DNA, 72 h; series mostly up to 28.7 µM
Outline: as §3

[23] = system: CP297; assay: as above; conditions: P. falciparum in erythrocytes, SYBR Green DNA, 72 h; series mostly up to 28.7 µM
Outline: as §3

[24] = system: P93_24; assay: as above; conditions: P. falciparum in erythrocytes, SYBR Green DNA, 72 h; series mostly up to 28.7 µM
Outline: as §3

[25] = system: P94_40; assay: as above; conditions: P. falciparum in erythrocytes, SYBR Green DNA, 72 h; series mostly up to 28.7 µM
Outline: as §3

[26] = system: TAB109; assay: as above; conditions: P. falciparum in erythrocytes, SYBR Green DNA, 72 h; series mostly up to 28.7 µM
Outline: as §3

Q: Which Potency [1] does the source give for `N[C@@H]1CONC1=O` here?
A: inactive

Q: What about the Potency [2] of the same compound?
A: inactive

Q: And the Potency [3]?
A: inconclusive: 16.6 µM [cytotoxic, partial curve, poor fit]

Q: What about the Potency [4] of the same compound?
A: inactive

Q: And the Potency [5]?
A: inconclusive: 0.105 µM [rising, full curve]

Q: What about the Potency [6] of the same compound?
A: inconclusive: 0.118 µM [rising, full curve, poor fit]

Q: And the Potency [7]?
A: inactive

Q: And the Potency [8]?
A: inactive

Q: And the Potency [9]?
A: inactive

Q: And the Potency [10]?
A: inconclusive: 0.469 µM [rising, full curve, poor fit]

Q: What about the Potency [11] of the same compound?
A: inactive

Q: And the Potency [12]?
A: inactive

Q: And the Potency [13]?
A: inactive

Q: What about the Potency [14] of the same compound?
A: inactive

Q: And the Potency [15]?
A: inactive

Q: And the Potency [16]?
A: inactive

Q: And the Potency [17]?
A: inactive

Q: And the Potency [18]?
A: inactive

Q: What about the Potency [19] of the same compound?
A: inactive

Q: What about the Potency [20] of the same compound?
A: inconclusive: 8.91 µM [inhibitor, single point]

Q: What about the Potency [21] of the same compound?
A: inactive

Q: And the Potency [22]?
A: inactive

Q: And the Potency [23]?
A: inconclusive: 19 µM [inhibitor, single point]

Q: What about the Potency [24] of the same compound?
A: inactive

Q: And the Potency [25]?
A: inactive

Q: What about the Potency [26] of the same compound?
A: inconclusive: 17.8 µM [inhibitor, single point]
